Chains of the proteins cited; added tags and fusions are not shown.
UniProt Q96KQ7: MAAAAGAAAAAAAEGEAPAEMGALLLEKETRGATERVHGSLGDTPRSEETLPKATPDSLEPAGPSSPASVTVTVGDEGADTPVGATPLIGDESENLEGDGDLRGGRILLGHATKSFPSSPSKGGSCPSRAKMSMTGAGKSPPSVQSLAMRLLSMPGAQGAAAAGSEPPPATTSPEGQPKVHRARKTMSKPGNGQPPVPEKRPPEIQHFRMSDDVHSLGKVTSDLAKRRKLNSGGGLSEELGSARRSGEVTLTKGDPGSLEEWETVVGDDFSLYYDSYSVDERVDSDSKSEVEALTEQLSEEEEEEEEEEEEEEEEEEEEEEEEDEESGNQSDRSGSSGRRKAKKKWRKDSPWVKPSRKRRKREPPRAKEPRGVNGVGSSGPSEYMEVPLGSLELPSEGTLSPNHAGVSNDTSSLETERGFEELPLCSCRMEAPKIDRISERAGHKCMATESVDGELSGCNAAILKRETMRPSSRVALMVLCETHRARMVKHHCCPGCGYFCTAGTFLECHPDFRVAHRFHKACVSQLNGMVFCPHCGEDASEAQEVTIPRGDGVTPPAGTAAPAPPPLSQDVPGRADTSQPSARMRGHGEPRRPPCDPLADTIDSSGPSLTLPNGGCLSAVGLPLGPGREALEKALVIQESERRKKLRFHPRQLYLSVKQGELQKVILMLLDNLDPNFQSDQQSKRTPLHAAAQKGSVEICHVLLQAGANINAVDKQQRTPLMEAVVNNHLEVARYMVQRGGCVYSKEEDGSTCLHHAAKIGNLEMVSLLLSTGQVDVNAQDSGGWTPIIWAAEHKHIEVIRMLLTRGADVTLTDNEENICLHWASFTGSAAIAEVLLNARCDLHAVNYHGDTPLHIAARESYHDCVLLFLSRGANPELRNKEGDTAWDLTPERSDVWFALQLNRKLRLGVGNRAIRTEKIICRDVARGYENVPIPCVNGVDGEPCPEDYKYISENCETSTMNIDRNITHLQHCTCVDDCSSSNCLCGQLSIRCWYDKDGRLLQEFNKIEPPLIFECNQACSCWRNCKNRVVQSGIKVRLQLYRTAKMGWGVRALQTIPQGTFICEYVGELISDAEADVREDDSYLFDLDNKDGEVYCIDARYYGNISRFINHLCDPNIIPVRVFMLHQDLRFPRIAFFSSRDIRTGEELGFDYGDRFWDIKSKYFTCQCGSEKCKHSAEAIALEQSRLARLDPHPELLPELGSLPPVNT
UniProt Q13547: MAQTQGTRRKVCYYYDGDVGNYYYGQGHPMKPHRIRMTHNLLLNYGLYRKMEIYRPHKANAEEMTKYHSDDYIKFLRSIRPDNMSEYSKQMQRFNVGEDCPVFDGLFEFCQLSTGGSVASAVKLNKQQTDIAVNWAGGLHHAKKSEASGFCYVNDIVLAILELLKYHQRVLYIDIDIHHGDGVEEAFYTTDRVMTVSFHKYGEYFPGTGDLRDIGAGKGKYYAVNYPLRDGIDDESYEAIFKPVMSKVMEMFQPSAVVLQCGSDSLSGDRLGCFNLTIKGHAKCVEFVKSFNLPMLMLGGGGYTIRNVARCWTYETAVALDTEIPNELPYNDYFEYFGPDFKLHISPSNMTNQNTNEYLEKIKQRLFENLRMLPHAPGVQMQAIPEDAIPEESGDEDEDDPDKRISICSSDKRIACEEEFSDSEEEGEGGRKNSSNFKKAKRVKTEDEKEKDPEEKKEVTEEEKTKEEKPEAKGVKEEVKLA
UniProt Q92769: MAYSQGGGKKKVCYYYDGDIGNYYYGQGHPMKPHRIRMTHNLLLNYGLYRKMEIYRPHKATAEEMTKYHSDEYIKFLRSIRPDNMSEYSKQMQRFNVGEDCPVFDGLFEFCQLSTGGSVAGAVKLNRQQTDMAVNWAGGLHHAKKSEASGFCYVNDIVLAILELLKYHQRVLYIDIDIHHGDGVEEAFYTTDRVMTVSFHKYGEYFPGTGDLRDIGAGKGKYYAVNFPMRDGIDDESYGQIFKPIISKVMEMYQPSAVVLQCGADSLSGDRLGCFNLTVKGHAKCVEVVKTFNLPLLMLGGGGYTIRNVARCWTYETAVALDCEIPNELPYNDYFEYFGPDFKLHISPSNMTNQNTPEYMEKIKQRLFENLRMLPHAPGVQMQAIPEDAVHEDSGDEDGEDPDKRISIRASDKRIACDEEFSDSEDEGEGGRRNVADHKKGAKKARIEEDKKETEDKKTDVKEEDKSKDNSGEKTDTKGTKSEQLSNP
UniProt O15379: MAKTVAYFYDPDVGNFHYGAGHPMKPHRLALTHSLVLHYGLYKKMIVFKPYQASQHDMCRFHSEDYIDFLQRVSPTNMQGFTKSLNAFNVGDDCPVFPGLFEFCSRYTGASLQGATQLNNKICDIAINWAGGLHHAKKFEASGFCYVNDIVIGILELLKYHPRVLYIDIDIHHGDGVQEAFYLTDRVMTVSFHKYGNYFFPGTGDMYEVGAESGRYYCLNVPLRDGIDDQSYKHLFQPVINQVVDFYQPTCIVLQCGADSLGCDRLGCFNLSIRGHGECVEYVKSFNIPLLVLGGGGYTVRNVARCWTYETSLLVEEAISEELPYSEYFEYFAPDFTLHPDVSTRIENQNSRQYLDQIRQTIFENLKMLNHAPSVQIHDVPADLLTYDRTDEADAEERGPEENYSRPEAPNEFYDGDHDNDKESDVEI

These are yes or no findings as the source states them, for the method shown. Binding seen in cells or lysates may run through a third protein. Some binding calls cover weakened binding; strength is not graded here.
What follows are substances tested against T1, Snail2 (UniProt O43623) (assay: co-IP; A549-Snail2 cell extracts immunoprecipitated with Snail2 antibodies; bound endogenous G9a and HDACs examined by western blotting).
T1 sequence: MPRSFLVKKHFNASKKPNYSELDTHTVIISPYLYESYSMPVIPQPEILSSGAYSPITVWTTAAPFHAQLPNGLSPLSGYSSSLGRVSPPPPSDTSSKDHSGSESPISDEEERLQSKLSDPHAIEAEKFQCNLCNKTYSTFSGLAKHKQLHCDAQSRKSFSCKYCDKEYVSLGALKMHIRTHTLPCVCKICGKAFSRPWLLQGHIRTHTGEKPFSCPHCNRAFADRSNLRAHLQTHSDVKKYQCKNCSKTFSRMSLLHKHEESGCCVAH
For “G9a (from UniProt Q96KQ7 1-1210) (enzyme)”, the binding was “binds”. In the case of “HDAC1 (from UniProt Q13547 1-482) (enzyme)”, the binding is reported as “binds”. With “HDAC2 (from UniProt Q92769 1-488) (enzyme)” the binding was “binds”. In the case of “HDAC3 (from UniProt O15379 1-428) (enzyme)”, the binding is reported as “binds”.

— PMC6629185
